Experimental data reported in patent US12714711B2, “Salts of neuroceuticals and uses thereof” (priority 2020, dated 2026).
At least one compound was matched to its structure with a doubt left.

Test system: MK-801 treated mice
Assay: Open field test, MK-801 induced hyper-locomotion;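 note: adult male C57BL/6J mice, locomotion counted as total photobeam breaks over 60 minutes in an open field photobeam activity system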
Settings: oral olanzapine 0.1 mg/kg or nicotinic acid salt 0.14 mg/kg; MK-801 0.2 mg/kg i.p.

## Cc1cc2c(s1)Nc1ccccc1N=C2N1CCN(C)CC1 [olanzapine, reference compound]
  locomotor activity in MK-801 treated mice: attenuated hyper-locomotion
